{"sequences": {"note": "Sequences of proteins named here, by UniProt entry; tags and fusion partners are left off.", "UniProt O42275, whole entry": "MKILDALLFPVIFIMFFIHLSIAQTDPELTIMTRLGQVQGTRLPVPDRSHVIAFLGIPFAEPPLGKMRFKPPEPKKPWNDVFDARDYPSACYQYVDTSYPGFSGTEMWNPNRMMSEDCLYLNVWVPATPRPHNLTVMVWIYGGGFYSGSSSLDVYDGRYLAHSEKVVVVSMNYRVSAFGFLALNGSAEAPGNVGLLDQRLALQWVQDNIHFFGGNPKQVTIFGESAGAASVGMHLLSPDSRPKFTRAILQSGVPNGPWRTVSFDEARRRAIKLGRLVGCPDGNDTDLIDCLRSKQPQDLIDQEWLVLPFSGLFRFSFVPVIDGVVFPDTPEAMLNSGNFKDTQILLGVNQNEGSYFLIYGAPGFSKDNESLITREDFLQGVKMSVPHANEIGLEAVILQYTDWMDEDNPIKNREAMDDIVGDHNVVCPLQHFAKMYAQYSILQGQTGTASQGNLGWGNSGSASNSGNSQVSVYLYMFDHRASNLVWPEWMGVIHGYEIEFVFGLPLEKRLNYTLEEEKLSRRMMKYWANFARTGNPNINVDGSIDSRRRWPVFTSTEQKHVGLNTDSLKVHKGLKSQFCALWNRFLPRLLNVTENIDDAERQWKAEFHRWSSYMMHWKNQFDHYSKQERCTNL", "UniProt P97612, whole entry": "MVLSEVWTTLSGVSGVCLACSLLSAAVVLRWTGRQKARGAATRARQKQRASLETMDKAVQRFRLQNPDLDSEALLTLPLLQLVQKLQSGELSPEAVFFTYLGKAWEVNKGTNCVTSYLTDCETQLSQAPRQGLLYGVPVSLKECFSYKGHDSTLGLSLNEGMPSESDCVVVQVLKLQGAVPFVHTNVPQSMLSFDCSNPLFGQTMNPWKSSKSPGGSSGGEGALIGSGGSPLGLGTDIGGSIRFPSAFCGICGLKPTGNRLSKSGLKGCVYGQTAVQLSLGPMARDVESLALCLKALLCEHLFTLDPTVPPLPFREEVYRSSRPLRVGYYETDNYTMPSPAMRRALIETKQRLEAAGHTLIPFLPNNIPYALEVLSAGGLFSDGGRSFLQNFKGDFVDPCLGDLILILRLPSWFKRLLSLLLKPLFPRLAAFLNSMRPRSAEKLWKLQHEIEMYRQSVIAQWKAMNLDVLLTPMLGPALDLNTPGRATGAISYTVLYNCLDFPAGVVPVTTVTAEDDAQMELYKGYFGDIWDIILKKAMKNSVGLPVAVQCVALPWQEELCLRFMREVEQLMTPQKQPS"}, "source": "patent US20040127518A1", "about": "“Modulation of anxiety through blockade of anandamide hydrolysis” (priority 2002, published 2004)", "key": {"[1]": {"target": "electric eel acetylcholinesterase (Electrophorus electricus, UniProt O42275)", "conditions": "read-out: Cholinesterase IC50, Table 3"}, "FAAH": {"target": "FAAH (Rattus norvegicus, UniProt P97612)"}}, "note": "Read-outs that look alike come from different tables or passages of the source. Structures were worked out from names or drawings and are uncertain.", "data": [{"smiles": "CCOC(=O)C(=O)CCc1ccccc1", "values": [{"measurement": "IC50", "setting": "[1]", "value": "> 30", "unit": "µM"}, {"measurement": "IC50", "setting": "FAAH; read-out: Amidohydrolase IC50, Table 3", "value": 25.6, "unit": "µM"}, {"measurement": "IC50", "setting": "FAAH; read-out: Inhibition of Amidohydrolase IC50, Table 4, FAAH IC50", "value": 25.6, "unit": "µM"}]}]}
